Test results: paper PMC4637324
No constants are given. Whether binding was seen depends on the method and setting. Binding seen in cells or lysates may run through a third protein. Some results given as binding are weak or reduced against the parent protein; the word gives no strength.

Chains of the proteins cited; added tags and fusions are not shown.
UniProt O00401: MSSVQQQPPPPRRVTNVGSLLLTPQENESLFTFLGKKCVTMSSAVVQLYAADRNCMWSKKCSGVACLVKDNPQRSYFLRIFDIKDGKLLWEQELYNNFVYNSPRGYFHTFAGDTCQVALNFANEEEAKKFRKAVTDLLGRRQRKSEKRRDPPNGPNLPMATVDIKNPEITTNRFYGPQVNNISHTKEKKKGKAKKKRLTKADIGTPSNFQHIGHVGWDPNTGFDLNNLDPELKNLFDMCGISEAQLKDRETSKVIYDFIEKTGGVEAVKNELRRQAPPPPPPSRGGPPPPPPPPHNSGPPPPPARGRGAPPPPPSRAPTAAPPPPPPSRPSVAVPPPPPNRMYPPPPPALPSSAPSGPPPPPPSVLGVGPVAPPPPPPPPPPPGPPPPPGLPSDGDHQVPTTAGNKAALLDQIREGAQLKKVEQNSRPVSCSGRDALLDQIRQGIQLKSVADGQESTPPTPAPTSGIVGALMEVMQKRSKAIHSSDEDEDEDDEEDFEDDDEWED

How the values were obtained:
[1] = target: heterogeneous nuclear ribonucleoprotein K (hnRNPK), endogenous in glioma cells (human (endogenous in U87 and GSCs)) (UniProt P61978); assay: co-IP; reciprocal co-immunoprecipitation of endogenous proteins from U87 glioma cells and GSCs (HF2609)
[2] = target: N-WASP (neural WASP), endogenous in glioma cells (human (endogenous in U87 and HF2609 GSCs)) (UniProt O00401); assay: as above
[3] = target: N-WASP (neural WASP), endogenous in glioma cells (human (endogenous in U87 and HF2609 GSCs)) (UniProt O00401); assay: co-IP; lysates of U87 cells (CV cells and RTVP-1-overexpressing cells), immunoprecipitation with anti-hnRNPK antibody, blots with anti-N-WASP, anti-hnRNPK and anti-RTVP-1

binding [1] | binding [2] | binding [3] | Binder
binds | binds | – | RTVP-1, endogenous in glioma cells (protein, UniProt P48060 22-266) ANILPDIENEDFIKDCVRIHNKFRSEVKPTASDMLYMTWDPALAQIAKAWASNCQFSHNTRLKPPHKLHPNFTSLGENIWTGSVPIFSVSSAITNWYDEIQDYDFKTRICKKVCGHYTQVVWADSYKVGCAVQFCPKVSGFDALSNGAHFICNYGPGGNYPTWPYKRGATCSACPNNDKCLDNLCVNRQRDQVKRYYSVVYPGWPIYPRNRYTSLFLIVNSVILILSVIITILVQHKYPNLVLLD
– | – | binds | RTVP-1 overexpressed in U87 cells (protein, UniProt P48060 22-266) ANILPDIENEDFIKDCVRIHNKFRSEVKPTASDMLYMTWDPALAQIAKAWASNCQFSHNTRLKPPHKLHPNFTSLGENIWTGSVPIFSVSSAITNWYDEIQDYDFKTRICKKVCGHYTQVVWADSYKVGCAVQFCPKVSGFDALSNGAHFICNYGPGGNYPTWPYKRGATCSACPNNDKCLDNLCVNRQRDQVKRYYSVVYPGWPIYPRNRYTSLFLIVNSVILILSVIITILVQHKYPNLVLLD
